US20210332360

By UniProt entry, the sequences of proteins in these tests, tags left out. Where a name states a change or a piece, a line headed by the entry shows the natural chain unless it says otherwise.
UniProt P83410: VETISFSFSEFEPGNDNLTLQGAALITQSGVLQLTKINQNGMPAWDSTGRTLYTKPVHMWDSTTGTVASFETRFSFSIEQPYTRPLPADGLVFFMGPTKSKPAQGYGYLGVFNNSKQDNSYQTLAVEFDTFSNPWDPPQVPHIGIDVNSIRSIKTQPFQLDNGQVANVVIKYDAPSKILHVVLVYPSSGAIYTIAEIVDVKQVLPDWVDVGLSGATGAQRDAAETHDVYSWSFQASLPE

Columns and labels:
Assay in all cases: binding assay
Conditions in all cases: after the 5' primer region all dT replaced by 4 (alpha-D-mannose-triazole-modified C8-alkyne-dU); natural dC; lectin array 0.04-400 nM; only ConA gave strong signal; purified native protein; protein details: RayBiotech Lectin Array 40; label: particle-displayed, or 5'-biotinTEG; single-stranded DNA; variant of 3-1
[1] = molecular target: T1, Wisteria floribunda lectin (WFA) (Wisteria floribunda) (UniProt A0A218PFP3)
T1 sequence (looked up, limits assumed): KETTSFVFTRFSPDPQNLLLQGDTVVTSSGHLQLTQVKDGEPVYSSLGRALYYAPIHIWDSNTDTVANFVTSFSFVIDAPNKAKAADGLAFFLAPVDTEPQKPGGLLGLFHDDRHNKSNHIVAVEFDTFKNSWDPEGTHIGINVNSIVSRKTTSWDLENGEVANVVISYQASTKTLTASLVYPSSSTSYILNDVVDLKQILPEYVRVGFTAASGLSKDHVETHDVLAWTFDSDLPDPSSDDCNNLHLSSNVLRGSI

[2] = molecular target: Erythrina cristagalli lectin (ECA) (Erythrina cristagalli) (UniProt P83410)
[3] = system: Lycopersicon esculentum lectin (LEA) (Lycopersicon esculentum)
[4] = molecular target: T2, Phaseolus lunatus lectin (LBA) (Phaseolus lunatus) (UniProt P16300)
T2 sequence (looked up, limits assumed): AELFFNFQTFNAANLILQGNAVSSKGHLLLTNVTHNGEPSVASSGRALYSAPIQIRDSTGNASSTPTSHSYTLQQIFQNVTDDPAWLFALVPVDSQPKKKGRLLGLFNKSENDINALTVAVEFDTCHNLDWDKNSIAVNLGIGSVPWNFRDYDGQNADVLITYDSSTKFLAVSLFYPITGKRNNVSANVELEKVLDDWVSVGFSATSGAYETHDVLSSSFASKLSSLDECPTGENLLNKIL

[5] = molecular target: T3, Anguilla anguilla lectin (AAA) (Anguilla anguilla) (UniProt Q7SIC1)
T3 sequence (looked up, limits assumed): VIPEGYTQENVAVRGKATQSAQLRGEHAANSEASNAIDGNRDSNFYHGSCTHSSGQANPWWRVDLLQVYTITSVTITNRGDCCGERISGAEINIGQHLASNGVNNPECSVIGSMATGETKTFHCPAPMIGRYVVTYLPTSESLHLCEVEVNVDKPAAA

[6] = molecular target: T4, Maclura pomifera lectin (MPL) (Maclura pomifera) (UniProt P18674)
T4 sequence (looked up, limits assumed): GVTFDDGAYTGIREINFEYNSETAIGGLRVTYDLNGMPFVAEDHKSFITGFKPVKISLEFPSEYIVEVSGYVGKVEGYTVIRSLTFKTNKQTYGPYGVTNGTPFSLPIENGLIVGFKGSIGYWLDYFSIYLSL

Measured: binding result

GATCCCAGTCCGAAGTAATCGTTGCATCTGCACGACTGGTGAGCTTGAGTGGCAGAAGAACTTGTGCAAACGGCTATAGG [3-1m]
no binding: all assays above

A negative result means that nothing was seen under these conditions. For part of these data: Tags and fusion partners may be left off the protein sequences shown. For part of these data: For at least one entry, the source does not settle the construct or the ends of the probe.
